At least one structure is not confirmed: it was looked up by name or label, or the drawing left a doubt.
System: NO
Assay: NO secretion in LPS-stimulated BV-2 microglia (Griess reagent)
Assay type: cell-based, Mouse
Settings: 50 μM, pretreatment 8 h, LPS 1 μg/mL 20 h

Cc1ccc(-c2cc(C(F)(F)F)nn2-c2ccc(S(N)(=O)=O)cc2)cc1 [celecoxib]
LPS-induced NO secretion in BV-2 cells: reduce LPS-induced NO secretion
